In publication PMC10418956:
These are yes or no findings as the source states them, for the method shown. In cells and extracts the contact can be indirect. These calls come from enrichment with a bait or labelling near it, and not all partners need be listed. A no says only that the protein was not detected with the bait.

T1: ATG5-TAP (Arabidopsis thaliana) (UniProt Q9FFI2)
T1 sequence: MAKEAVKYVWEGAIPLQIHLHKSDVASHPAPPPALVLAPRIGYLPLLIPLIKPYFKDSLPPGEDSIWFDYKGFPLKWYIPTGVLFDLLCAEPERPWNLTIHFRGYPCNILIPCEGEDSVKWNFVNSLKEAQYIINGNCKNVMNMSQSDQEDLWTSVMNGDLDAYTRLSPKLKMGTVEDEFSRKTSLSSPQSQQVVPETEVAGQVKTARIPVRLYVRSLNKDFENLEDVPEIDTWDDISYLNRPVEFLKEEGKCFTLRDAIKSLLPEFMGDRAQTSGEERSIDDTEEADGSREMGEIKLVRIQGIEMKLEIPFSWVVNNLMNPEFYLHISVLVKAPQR

T2: ATG5^K128R-TAP (Arabidopsis thaliana) (UniProt Q9FFI2)
T2 sequence: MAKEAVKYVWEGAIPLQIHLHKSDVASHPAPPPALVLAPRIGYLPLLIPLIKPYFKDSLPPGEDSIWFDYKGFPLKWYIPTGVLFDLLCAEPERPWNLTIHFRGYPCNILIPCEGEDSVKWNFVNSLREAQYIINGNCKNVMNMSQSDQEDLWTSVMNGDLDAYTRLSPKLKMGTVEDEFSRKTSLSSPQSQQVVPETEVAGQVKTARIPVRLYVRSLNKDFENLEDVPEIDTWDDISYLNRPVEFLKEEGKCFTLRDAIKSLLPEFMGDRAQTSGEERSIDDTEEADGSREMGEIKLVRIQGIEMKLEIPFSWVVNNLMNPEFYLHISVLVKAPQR


What was measured:
[1] = target: T1, ATG5-TAP (Arabidopsis thaliana); test: affinity purification with mass spectrometry; tandem affinity purification (IgG Sepharose, PreScission protease, Ni Sepharose) of TAP-tagged bait expressed under the 2x35S promoter in Col-0, from protein extracts of fully expanded rosette leaves at the bolting stage, long day conditions; LC-MS/MS; hits enriched over the GFP-TAP control (fold change >= 1.5, p <= 0.05)
[2] = target: T2, ATG5^K128R-TAP (Arabidopsis thaliana); test: as above

| Binder | binding [1] | binding [2] |
| --- | --- | --- |
| ATG12A (protein, UniProt Q8S924 1-96) MATESSSPSSVRKVVVHLRATGGAPILKQSKFKIPGTDKFAKVIDFLRRQLHSDSLFVYVNSAFSPNPDESVIDLYNNFGFDGKLVVNYACSMAWG | binds | no binding |
| 20S proteasome subunit alpha E2 (protein, UniProt Q42134 1-237) MFLTRTEYDRGVNTFSPEGRLFQVEYAIEAIKLGSTAIGVKTKEGVVLAVEKRITSPLLEPSSVEKIMEIDDHIGCAMSGLIADARTLVEHARVETQNHRFSYGEPMTVESTTQALCDLALRFGEGEEESMSRPFGVSLLIAGHDENGPSLYYTDPSGTFWQCNAKAIGSGSEGADSSLQEQFNKDITLQEAETIAVSILKQVMEEKVTPNNVDIAKVAPAYHLYTPQEVEAVISRL | binds |  |
| ATG16 (protein, UniProt Q6NNP0 1-509) MVQEEKAMEAINDALRALRKRHLLEEGAHAPAISALSKPLISQGSEWKEKTEKLETELQQCYKAQSRLSEQLVIEVAESRTSKAILQEKELLINDLQKELTQRREDCTRLQEELEEKTKTVDVLIAENLEIRSQLEEMTSRVQKAETENKMLIDRWMLQKMQDAERLNEANDLYEEMLAKLKANGLETLARQQVDGIVRRNEDGTDHFVESTIPSTCANRIHAHEGGCGSIVFEYNSGTLFTGGQDRAVKMWDTNSGTLIKSLYGSLGNILDMAVTHDNKSVIAATSSNNLFVWDVSSGRVRHTLTGHTDKVCAVDVSKFSSRHVVSAAYDRTIKLWDLHKGYCTNTVLFTSNCNAICLSIDGLTVFSGHMDGNLRLWDIQTGKLLSEVAGHSSAVTSVSLSRNGNRILTSGRDNVHNVFDTRTLEICGTLRASGNRLASNWSRSCISPDDDYVAAGSADGSVHVWSLSKGNIVSILKEQTSPILCCSWSGIGKPLASADKNGYVCTWT | binds | binds |
| ATG12B (protein, UniProt Q9LVK3 1-94) MATESPNSVQKIVVHLRATGGAPILKQSKFKVSGSDKFANVIDFLRRQLHSDSLFVYVNSAFSPNPDESVIDLYNNFGFDGKLVVNYACSMAWG | binds | no binding |

The next lines start with the values.

| binding [1] | binding [2] | Binder |
| --- | --- | --- |
|  | binds | SEC13B (protein, UniProt O64740 1-302) MPGQKIETGHEDIVHDVQMDYYGKRIATASSDCTIKITGVSNNGGSQQLATLTGHRGPVWEVAWAHPKYGSILASCSYDGQVILWKEGNQNQWTQDHVFTDHKSSVNSIAWAPHDIGLSLACGSSDGNISVFTARADGGWDTSRIDQAHPVGVTSVSWAPATAPGALVSSGLLDPVYKLASGGCDNTVKVWKLANGSWKMDCFPALQKHTDWVRDVAWAPNLGLPKSTIASGSQDGKVIIWTVGKEGEQWEGKVLKDFMTPVWRVSWSLTGNLLAVSDGNNNVTVWKEAVDGEWEQVTAVEP |
| no binding | binds | SNX2a (protein, UniProt Q8L5Z7 1-587) MMGSENADGFEETNLNAQRDDMENLDLGVDGGDHPLKISDVNGDTSNSGYRSAMSTLSNVRDPLSPPPTVMIPADSDPLLAPSSYEDFRSSFSSKPISSDNSYIEPPSYADVIFSPFDENSDSEINGTEDNSLHSQFSDSLSRSPSSSSSDYIKITVSNPQKEQEISNSIVGGNTYITYQITTRTNLPDFGGPSEFSVRRRFRDVVTLADRLAETYRGFCIPPRPDKSVVESQVMQKQEFVEQRRVALEKYLRRLSAHPVIRNSDELKVFLQVQGKLPLPMSTDVASRMLDGAVKLPKQLFGEGGASAVPVTEVGQPARGGRDLLRLFKELRQSVSNDWGGSKPPVVEEDKEFLEKKEKMHDLEQQIINASQQAESLVKAQQDMGETMGELGLAFIKLTKFENEEAVCNPQRTRANDMKNLATAAVKASRFYRELNSQTVKHLDTLHEYLGMMMAVQGAFADRSSALLTVQTLLSELPSLQTRVEKLEAASSKVFGGDKSRIRKIEELKETIKVTEDAKNVAIKGYERIKENNRSEVERLDRERRADFMNMMKGFVVNQVGYAEKMGNVWAKVAEETSQYDREKQSS |
|  | binds | Nucleoporin 155 (protein, UniProt F4HXV6 1-1464) MSQDDEIVMRDVTSAGICIGDRIGREAASQLDLEEALEASRYASHPYSTHPREWPPLIEVGETWELPSVLIERYNTAGGEGTALCGIFPEIRRAWASVDNSLFLWRFDKRDGQCPEYSGEEQAICAVGLAKCRPGVFVEAIQYLLVLATPVELVLVGVCCTEGPDGRDPYAEISVQPLPDYTISSDGVTMTCVTCTNKGRIFMAGRDGHIYELLYTTGSGWNKRCRKVCLTAGVGSMISRWVVPNVFKFGAVDPVVEMVVDNERQILYARTEEMKLQAYVSGPNGEGPLKKVAEERNLLNQKDLSQGNRQSAVAGRSNKPSIVSISPLSMLESKWLHLVAALSDGRRMYLSTSSSGSGSTISFSGFNNHRQTPNCLKVVSTRPSPPLGVGVGLGFGAASVAGRTQNDDLSMKIETAYYSVGTLVLSDSSPPAMSSLLVVSRDSSVHSQAGSSSGPSSRSSRALREVVSSLPIEGRMLFVADVLPSPDTAATIQSLYSELEYCGVEVSGESYEKACGKLWARSDLSTQHILPRRKIVVFTTMGMMELVFNRPVDILRRLLESNSPRSLLEDFFTRFGVGEAAAMCLMLAARIINFEDLISNIVADKAAEAFEDPRIVGMPQFDGSSGLSNTRTATGGFSMGQVVQEAEPIFSGAHEGLCLCTSRLLFPLWELPVMSKKTSSDTMSEDGVVICRLSTSAMHVLESKIRSLEKFLRSRRNQRRGLYGCVAGLGDVTGSILYGTGSELGATERNMVRNLFGAYSNGGESANKRQRLPYSPAELAATEVRAMECIRQLLLRSAEALFLLQLLSQHHVARLVQELDANLKQALVQLTFHQLVCSEEGDQIATRLISAVMEYYTGSDGRGTVDDISPRLREGCPSYFKESDYKFYLAVERLERAALTSDAEEKENVAREAFSFLSKVPGSADLQTVCKRFEDLRFYEAVVCLPLQKAQALDPAGDAFNDQLDASIREHALAQRKQCYEIIANALRSLASPLASPTLDEASRSQYICQIVHLGVQSTDRAFREYLYKAMIELHLENELLEYGGPDLVPFLQNAGSHSESQVGAVSTGSSPLGHSGTQISSDQAKYFDLLAKYYVSKRQHVLAAHVFLRLAERRAISLGDSPTLERRRDDLSQAVLQAKNASNSDGLVGSAQGVSDSGLLDLLEGKLAVLQFQIKIRDKLEAIASNFESSVAMQDSDQNGQVLDGDSSDDTNLANAANEMAMEVSSELKSVTQLYNEYAVPFELWEICLEMLYFANYSGDADSSIIRETWARLIDQALSQGGIREACAVLKRVGSHIYPGDGVVLPLDVLCLHLERAALERSERIENVRDEDIAKALLAACKGAAEPVLNAYDRLLSNAAVVPSPNLRIRLLRSVLVVLREWAMSVLSDRMGSSPTRSSLILGGSFALENKAALNQGARDKIANAANRYMTEVRRLALPPNKTDGVYAGFKELDESLLSPFSF |
| binds | no binding | SNX1 (protein, UniProt Q9FG38 1-402) MESTEQPRNISGSMQSPRSPSSHPYLSVSVTDPVKLGNGVQAYISYRVITKTNLPEYQGPEKIVIRRYSDFVWLRDRLFEKYKGIFIPPLPEKSAVEKFRFSAEFIEMRRAALDIFVNRIALHPELQQSEDLRTFLQADEETMDRFRFQETSIFKKPADLMQMFRDVQSKVSDAVLGKEKPVEETTADYEKLKHYIFELENHLTEAQKHAYRLVKRHRELGQSLLDFGKAVKLLGACEGEPTGKAFSDLGTKSELLSIKLQKEAQQVLMNFEEPLKDYVRYVQSIKATIAERGTAFKQHCELSETTKLKEINLDKLMLTRSDKVGEAEIEYREIKAESEEATRRFERIVKRMEDEIVRFQEQKTEEMGVAFHQFAKGQARLANSVADAWRSLLPKLEASYSV |
| binds |  | SEC24C (protein, UniProt Q9M081 1-1080) MVAPVPPGAPRPNSQQNSGPPNFYPGSQGNSNALADNMQNLSLNRPPPMMPGSGPRPPPPFGQSPQPFPQQSPSYGAPQRGPSPMSRPGPPAGMARPGGPPPVSQPAGFQSNVPLNRPTGPPSRQPSFGSRPSMPGGPVAQPAASSSGFPAFGPSGSVAAGPPPGSRPMAFGSPPPVGSGMSMPPSGMIGGPVSNGHQMVGSGGFPRGTQFPGAAVTTPQAPYVRPPSAPYARTPPQPLGSHSLSGNPPLTPFTAPSMPPPATFPGAPHGRPAVSGLPYGPPSAQVAPPLGFPGQMQPPRYGMGPLPNQSMTNIPTAMGQPGATVPGPSRIDPNQIPRPGSSSSPTVFETRQSNQANPPPPATSDYVVRDTGNCSPRYMRCTINQIPCTVDLLSTSGMQLALMVQPLALSHPSEEPIQVVDFGEGGPVRCSRCKGYINPFMKFIDQGRKFICNFCGYTDETPRDYHCNLGPDGRRRDVDERPELCRGTVEFVATKEYMVRDPMPAVYFFLIDVSMNAIQTGATAAACNAIQQVLSDLPEGPRTFVGIATFDSTIHFYNLKRALQQPLMLIVPDVQDVYTPLETDVVVQLSECRQHLELLLDSIPTMFQESKIPESAFGAAVKAAFLAMKSKGGKLMVFQSILCSVGVGALSSREAEGRANMSAGEKEAHKLLQPADKTLKTMAIEFAEYQVCVDIFITTQAYVDMASISVIPRTTGGQVYCYYPFSALSDPPKLYNDLKWNITRPQGFEAVMRVRCSQGIQVQEYSGNFCKRIPTDIDLPAHDDKLQDGAECAFQCALLYTTIYGERRIRVTTLSLSCTNMLSNLFRAADLDSQFACMLKQAANEIPSKALPLVKEQATNSCINALYAYRKFCATVTSSGQLILPEALKLFPLYTLALTKSVGLRTDGRIDDRSFWINYVSSLSTPLAIPLVYPRMISVHDLDVKDTEGSVLPPPIPLSSEHISNEGVYFLENGEDGLLFVGESVDSDILQKLFAVSSAAEIPNQFVLQQYDNQLSKKFNDAVNEIRRQRCSYLRIKLCKKGEPSGMLFLSYMVEDRTASGPSYVEFLVQVHRQIQLKMN |
